# Values of other authors as cited in patent US10918620B2, “Use of statins for periodontal disease and bone regeneration” (priority 2012, dated 2021).
# At least one compound was matched to its structure with a doubt left.
# How the values were obtained:
# [1] = test system: bone formation and bone resorption; settings: 18 months of treatment with 40 to 80 mg per day; cited from earlier work
# epithelial cells = settings: cited from earlier work
smiles,measurement,setting,value
CCC(C)(C)C(=O)O[C@H]1C[C@@H](C)C=C2C=C[C@H](C)[C@H](CC[C@@H]3C[C@@H](O)CC(=O)O3)[C@H]21 [simvastatin],bone formation and bone resorption,[1],significantly increase bone formation and decrease bone resorption
same,IL-la production,epithelial cells,decreases IL-la production in a dose-dependent manner
